PubChem BioAssay AID686943 – Drosophila RNAi Screening Center | 2013
The deposit covers about 23,000 reagents; this is an unselected part of those that have a named target and a result. 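Extra replicates exist only for a retested subset of genes; insulin dose and duration not given; both raised and lowered dpERK matter.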 A plus sign joins genes that one reagent is predicted to hit. Not all columns of the deposit are shown. Not given: the amount of reagent, the time to read-out.

- Purpose: 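Search across the genome for regulators of signalling from receptor tyrosine kinase to ERK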 (primary screen)
- Cells: Drosophila S2R+ haemocyte-like cells expressing YFP-tagged ERK (Rolled)
- Knock-down reagent: long dsRNA against Drosophila genes
- Challenge: insulin stimulation versus unstimulated cells; dose and duration not given
- Measured: 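Per-plate z-scores of phospho-ERK immunostaining normalised to YFP-tagged ERK, measured with and without insulin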
- Reading the numbers: replicate 1, z-score of dpERK with insulin: higher = more active ERK per ERK-YFP after insulin

CG31955 [DRSC00285]
- replicate 1, z-score of dpERK with insulin: 0.53

Rh4 + sina [DRSC11396]
- replicate 1, z-score of dpERK with insulin: 0.17

CG32119 [DRSC09248]
- replicate 1, z-score of dpERK with insulin: 0.14

CG32119 [DRSC21462]
- replicate 1, z-score of dpERK with insulin: 0.32

srp [DRSC13125]
- replicate 1, z-score of dpERK with insulin: 0.27

srp [DRSC17068]
- replicate 1, z-score of dpERK with insulin: -1.4

cher [DRSC16924]
- replicate 1, z-score of dpERK with insulin: 0.01

PsGEF [DRSC18596]
- replicate 1, z-score of dpERK with insulin: 0.52

PsGEF [DRSC18600]
- replicate 1, z-score of dpERK with insulin: -0.8

PsGEF [DRSC18601]
- replicate 1, z-score of dpERK with insulin: -2.07

Ir7b [DRSC18009]
- replicate 1, z-score of dpERK with insulin: -1.1

Tsen34 [DRSC22932]
- replicate 1, z-score of dpERK with insulin: 0.55

plum [DRSC16054]
- replicate 1, z-score of dpERK with insulin: 0.44

brm [DRSC11330]
- replicate 1, z-score of dpERK with insulin: -2.75

CG43902 [DRSC17850]
- replicate 1, z-score of dpERK with insulin: 0.26

CG43902 [DRSC17999]
- replicate 1, z-score of dpERK with insulin: -2.49

CG6225 [DRSC15996]
- replicate 1, z-score of dpERK with insulin: -0.27

CG4676 [DRSC06879]
- replicate 1, z-score of dpERK with insulin: 0.19

CG15631 [DRSC00466]
- replicate 1, z-score of dpERK with insulin: 0.07

bbx + waw [DRSC20575]
- replicate 1, z-score of dpERK with insulin: 0.48

bbx + waw [DRSC20589]
- replicate 1, z-score of dpERK with insulin: -0.69

Acn [DRSC02062]
- replicate 1, z-score of dpERK with insulin: 1.27

Bsg [DRSC01010]
- replicate 1, z-score of dpERK with insulin: -0.09

Bsg [DRSC01011]
- replicate 1, z-score of dpERK with insulin: 2

CG34280 [DRSC13229]
- replicate 1, z-score of dpERK with insulin: 1.82

Sld5 [DRSC14892]
- replicate 1, z-score of dpERK with insulin: -0.6

CG7781 [DRSC03068]
- replicate 1, z-score of dpERK with insulin: -0.5

CG2861 [DRSC18229]
- replicate 1, z-score of dpERK with insulin: 0.21

CG14325 [DRSC14804]
- replicate 1, z-score of dpERK with insulin: 0.46

Obp99d [DRSC15046]
- replicate 1, z-score of dpERK with insulin: 0.18

CG14642 [DRSC12228]
- replicate 1, z-score of dpERK with insulin: -0.08

Part of the list above in another layout.
gene	amplicon	replicate 1, z-score of dpERK with insulin
PsGEF	DRSC18601	-2.07
Ir7b	DRSC18009	-1.1
